The other results are listed elsewhere or left out.

By UniProt entry, the sequences of proteins in these tests, tags left out. Where a name states a change or a piece, a line headed by the entry shows the natural chain unless it says otherwise.
UniProt O14530: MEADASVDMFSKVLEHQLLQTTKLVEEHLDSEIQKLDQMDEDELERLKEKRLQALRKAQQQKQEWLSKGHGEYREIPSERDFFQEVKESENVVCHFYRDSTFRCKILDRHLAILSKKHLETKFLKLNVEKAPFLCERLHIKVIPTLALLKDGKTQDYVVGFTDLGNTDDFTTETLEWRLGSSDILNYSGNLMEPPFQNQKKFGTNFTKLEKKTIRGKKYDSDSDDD
UniProt P62253: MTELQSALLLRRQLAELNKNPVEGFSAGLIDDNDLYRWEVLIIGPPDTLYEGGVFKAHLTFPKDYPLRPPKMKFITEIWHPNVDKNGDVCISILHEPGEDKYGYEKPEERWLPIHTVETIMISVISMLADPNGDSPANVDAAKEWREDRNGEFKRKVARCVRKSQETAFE
UniProt P68363, whole entry, looked up: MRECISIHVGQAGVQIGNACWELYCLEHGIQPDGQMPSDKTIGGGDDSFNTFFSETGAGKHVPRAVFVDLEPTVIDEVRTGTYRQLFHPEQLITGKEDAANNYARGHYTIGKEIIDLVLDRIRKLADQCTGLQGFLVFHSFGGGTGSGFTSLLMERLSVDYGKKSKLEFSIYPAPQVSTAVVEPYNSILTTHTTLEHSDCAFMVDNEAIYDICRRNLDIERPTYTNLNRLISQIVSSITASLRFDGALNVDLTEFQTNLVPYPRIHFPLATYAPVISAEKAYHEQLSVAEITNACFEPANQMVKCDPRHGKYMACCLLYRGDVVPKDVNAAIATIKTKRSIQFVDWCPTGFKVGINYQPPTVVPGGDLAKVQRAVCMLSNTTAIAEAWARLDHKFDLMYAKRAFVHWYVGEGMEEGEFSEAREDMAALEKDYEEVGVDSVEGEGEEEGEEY
UniProt O14562: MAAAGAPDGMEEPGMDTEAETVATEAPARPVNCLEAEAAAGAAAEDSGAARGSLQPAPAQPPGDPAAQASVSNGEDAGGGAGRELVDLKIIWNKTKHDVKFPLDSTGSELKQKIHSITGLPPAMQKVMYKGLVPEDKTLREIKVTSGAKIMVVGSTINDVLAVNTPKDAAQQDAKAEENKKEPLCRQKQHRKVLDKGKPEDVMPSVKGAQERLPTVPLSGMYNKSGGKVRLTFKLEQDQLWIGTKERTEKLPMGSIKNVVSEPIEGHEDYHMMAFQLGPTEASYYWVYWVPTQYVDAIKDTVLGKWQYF
UniProt Q9NPD8: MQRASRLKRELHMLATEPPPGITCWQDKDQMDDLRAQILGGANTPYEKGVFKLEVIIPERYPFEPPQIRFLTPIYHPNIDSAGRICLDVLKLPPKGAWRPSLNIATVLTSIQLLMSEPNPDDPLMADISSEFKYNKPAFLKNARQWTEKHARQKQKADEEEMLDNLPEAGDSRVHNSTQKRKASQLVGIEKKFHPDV
UniProt P63279, whole entry, looked up: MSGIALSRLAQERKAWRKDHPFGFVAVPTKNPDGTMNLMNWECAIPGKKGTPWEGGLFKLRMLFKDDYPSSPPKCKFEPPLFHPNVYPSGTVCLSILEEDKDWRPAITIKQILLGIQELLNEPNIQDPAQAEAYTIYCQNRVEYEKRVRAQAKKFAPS
UniProt Q13454: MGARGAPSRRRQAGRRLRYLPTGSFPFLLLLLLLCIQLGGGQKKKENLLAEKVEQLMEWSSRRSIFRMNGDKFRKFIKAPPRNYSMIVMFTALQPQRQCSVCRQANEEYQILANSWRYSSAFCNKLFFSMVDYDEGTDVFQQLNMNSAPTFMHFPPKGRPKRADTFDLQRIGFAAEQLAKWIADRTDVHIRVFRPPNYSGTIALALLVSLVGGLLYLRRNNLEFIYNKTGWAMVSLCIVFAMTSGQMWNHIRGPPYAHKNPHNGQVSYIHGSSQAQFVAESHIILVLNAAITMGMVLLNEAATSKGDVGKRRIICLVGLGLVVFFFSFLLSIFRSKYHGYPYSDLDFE
UniProt P62256: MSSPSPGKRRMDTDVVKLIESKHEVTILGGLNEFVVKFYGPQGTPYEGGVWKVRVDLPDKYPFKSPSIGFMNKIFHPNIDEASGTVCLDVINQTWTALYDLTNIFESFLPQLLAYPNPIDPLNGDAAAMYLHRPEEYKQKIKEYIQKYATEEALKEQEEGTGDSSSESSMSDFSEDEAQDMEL
UniProt Q9BZV1: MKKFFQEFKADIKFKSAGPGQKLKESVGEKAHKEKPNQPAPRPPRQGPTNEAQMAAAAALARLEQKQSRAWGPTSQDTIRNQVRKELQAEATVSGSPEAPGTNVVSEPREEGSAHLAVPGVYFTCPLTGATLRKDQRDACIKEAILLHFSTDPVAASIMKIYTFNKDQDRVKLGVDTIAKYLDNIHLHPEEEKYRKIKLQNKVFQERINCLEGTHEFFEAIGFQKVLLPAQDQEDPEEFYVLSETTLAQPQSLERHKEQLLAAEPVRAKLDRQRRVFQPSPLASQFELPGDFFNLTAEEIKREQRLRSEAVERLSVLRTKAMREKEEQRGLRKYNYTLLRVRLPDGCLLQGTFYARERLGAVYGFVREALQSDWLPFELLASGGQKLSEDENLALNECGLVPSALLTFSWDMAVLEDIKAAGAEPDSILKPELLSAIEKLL
UniProt Q9H832: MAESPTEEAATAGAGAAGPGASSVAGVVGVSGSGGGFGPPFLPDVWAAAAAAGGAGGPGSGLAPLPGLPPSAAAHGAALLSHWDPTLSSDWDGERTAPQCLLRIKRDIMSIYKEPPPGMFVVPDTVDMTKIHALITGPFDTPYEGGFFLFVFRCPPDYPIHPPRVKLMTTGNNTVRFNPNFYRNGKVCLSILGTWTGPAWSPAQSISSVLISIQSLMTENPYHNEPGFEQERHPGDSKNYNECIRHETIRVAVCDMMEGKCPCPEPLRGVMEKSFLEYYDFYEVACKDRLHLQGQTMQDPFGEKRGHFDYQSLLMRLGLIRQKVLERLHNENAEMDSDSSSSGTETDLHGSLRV
UniProt Q92575: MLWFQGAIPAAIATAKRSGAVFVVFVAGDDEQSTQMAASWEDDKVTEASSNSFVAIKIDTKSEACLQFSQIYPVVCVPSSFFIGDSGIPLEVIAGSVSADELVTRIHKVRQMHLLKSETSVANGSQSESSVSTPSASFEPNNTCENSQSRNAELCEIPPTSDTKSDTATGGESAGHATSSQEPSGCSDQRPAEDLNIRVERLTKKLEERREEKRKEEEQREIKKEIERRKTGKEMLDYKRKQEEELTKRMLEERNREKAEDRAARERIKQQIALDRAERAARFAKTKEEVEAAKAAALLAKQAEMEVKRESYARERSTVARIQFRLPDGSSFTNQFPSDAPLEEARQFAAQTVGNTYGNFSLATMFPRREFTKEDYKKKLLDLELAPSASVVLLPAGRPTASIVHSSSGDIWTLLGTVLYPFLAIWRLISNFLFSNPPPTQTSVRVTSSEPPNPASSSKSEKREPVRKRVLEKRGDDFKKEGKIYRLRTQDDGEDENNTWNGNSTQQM
UniProt Q8IWV8: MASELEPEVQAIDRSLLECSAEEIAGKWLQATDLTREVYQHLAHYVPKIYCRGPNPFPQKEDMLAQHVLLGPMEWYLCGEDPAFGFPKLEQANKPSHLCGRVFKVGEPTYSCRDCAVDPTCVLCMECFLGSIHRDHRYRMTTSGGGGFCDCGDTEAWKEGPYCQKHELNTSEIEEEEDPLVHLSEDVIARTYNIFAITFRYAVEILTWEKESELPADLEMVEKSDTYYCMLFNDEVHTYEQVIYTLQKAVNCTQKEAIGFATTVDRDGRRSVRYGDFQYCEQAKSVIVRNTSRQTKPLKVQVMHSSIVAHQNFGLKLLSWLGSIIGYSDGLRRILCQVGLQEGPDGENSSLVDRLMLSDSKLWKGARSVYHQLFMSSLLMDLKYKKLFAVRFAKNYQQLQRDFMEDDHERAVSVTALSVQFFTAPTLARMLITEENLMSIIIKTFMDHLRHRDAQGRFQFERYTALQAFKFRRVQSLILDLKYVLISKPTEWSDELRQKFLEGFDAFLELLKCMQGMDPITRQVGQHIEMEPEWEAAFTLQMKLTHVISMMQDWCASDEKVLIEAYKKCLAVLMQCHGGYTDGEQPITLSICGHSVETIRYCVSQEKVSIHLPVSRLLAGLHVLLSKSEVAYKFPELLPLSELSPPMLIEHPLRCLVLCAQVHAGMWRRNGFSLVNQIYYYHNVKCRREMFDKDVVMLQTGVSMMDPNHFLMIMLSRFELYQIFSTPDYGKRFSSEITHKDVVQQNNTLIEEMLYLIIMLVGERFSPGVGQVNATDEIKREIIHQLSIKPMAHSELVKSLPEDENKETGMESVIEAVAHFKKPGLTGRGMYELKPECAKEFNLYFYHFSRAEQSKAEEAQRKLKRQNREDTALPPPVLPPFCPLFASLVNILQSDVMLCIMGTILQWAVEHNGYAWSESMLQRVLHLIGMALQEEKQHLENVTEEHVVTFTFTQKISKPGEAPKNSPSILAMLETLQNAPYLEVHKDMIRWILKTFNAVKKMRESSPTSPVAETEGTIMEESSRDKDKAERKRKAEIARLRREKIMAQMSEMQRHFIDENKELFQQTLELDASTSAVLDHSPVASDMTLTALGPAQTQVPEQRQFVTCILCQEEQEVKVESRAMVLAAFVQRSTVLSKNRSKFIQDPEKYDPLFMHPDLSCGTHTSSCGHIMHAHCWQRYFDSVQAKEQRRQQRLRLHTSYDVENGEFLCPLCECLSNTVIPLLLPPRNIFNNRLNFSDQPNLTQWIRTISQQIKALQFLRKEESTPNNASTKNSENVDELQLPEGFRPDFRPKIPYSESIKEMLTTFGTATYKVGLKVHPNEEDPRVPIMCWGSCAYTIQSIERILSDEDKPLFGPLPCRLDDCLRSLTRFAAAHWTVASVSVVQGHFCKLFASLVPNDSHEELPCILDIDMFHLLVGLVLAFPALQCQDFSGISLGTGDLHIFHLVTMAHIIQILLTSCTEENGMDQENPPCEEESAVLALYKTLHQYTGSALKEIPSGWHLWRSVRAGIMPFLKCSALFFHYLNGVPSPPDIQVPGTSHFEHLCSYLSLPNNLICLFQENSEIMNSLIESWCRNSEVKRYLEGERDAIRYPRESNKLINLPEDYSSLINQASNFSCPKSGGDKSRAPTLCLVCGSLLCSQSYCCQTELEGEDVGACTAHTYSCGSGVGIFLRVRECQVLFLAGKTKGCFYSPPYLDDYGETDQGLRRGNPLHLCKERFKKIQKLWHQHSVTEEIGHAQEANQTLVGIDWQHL
UniProt Q96LJ8: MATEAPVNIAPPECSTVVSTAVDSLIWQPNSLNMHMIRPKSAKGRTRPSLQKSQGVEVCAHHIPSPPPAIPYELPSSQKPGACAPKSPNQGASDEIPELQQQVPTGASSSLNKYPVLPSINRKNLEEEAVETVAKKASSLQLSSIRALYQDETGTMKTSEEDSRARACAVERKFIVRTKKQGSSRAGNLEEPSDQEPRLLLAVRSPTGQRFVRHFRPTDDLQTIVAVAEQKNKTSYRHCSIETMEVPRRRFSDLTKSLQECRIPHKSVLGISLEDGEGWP
UniProt P49459, whole entry, looked up: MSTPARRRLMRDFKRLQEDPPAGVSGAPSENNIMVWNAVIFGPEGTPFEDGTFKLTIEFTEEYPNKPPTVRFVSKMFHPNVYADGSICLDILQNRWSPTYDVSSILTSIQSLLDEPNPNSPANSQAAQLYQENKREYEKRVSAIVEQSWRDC
UniProt O15042: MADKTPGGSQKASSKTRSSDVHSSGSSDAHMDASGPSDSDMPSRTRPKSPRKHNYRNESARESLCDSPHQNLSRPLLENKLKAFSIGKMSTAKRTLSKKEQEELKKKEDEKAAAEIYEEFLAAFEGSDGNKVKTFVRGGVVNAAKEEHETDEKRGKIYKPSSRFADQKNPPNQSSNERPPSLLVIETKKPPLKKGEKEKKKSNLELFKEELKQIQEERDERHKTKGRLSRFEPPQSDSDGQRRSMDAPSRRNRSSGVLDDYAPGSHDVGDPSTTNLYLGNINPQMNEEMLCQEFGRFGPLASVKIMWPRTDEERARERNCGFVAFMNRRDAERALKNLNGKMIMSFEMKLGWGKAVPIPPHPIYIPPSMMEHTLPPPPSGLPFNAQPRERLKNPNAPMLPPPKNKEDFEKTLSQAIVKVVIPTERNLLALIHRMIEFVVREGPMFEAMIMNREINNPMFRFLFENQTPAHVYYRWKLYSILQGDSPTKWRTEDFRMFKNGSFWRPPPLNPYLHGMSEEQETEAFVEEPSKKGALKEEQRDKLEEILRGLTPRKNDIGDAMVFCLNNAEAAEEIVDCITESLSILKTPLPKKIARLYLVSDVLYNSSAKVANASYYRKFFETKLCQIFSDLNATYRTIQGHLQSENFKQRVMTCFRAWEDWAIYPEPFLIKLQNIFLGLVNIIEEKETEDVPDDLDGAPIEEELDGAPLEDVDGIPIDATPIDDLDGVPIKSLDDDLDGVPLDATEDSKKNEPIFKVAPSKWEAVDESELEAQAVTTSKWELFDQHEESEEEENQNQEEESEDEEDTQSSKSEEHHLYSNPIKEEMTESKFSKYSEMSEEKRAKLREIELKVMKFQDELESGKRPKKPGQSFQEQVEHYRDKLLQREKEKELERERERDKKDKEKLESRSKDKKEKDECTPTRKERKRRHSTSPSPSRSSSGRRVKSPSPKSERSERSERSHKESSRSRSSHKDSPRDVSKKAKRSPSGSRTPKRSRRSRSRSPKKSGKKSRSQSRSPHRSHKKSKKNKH

Compound in the assay: CCn1c(C(=O)N(C2CC2)C2CC2)cc2c3c(ncn3C)c(Nc3cc(C)n(C)n3)nc21
In words: log2 fold change, soluble protein after heating vs DMSO (PISA); higher = thermal stabilisation; K562 lysate, 10 uM; active = over 0.2 and 3.5 SD of the protein, either way, in both replicates (recomputed). The procedure, abridged: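 Quantification was by TMTpro 16plex LC-MS/MS with equalised channel sums, applied to the supernatant after 21,000xg for 90 min. Samples were crude K562 extract at 1 mg/mL protein in PBS pH 7.4 with 1 mM MgCl2, treated with 10 μM compound for 30 min, heated for 3 min across 48°C-58°C, pooled and brought to 0.5% NP-40 at 4°C. Values are log-two fold changes in thermal stability relative to solvent controls, from duplicates.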
Consider TXNDC9 (UniProt O14530), for which the log2 fold change is inactive: -0.018. As to UBE2G1 (UniProt P62253), the log2 fold change is inactive: 0.04. To TUBE1 (UniProt Q9UJT0) belongs inactive: 0.028; to UBP1 (UniProt Q9NZI7), inactive: 0.007. UCK1 isoform 4 (UniProt Q9HA47): the log2 fold change is inactive: 0.004. With TUBA1B (UniProt P68363), the log2 fold change was inactive: 0.013. For UBFD1 (UniProt O14562), the log2 fold change was inactive: -0.036.

As to UBQLN2 (UniProt Q9UHD9), the log2 fold change is inactive: -0.018. To UBE2O (UniProt Q9C0C9) belongs inactive: -0.06; to UBA6, inactive: 0.001; to UBE2T (UniProt Q9NPD8), inactive: 0.017. Take UBE2I (UniProt P63279): the log2 fold change is inactive: -0.057. For the target TUSC3 isoform 2 (UniProt Q13454), the log2 fold change was inactive: -0.006. As to UBR5 (UniProt O95071), the log2 fold change is inactive: 0.01. With UBE2H (UniProt P62256), the log2 fold change was inactive: -0.055. Regarding UBXN6 (UniProt Q9BZV1), the log2 fold change was inactive: -0.001. U2AF2 (UniProt P26368): the log2 fold change is inactive: -0.039. Turning to UBE2Z (UniProt Q9H832), the log2 fold change was inactive: 0.038.

On to UBXN4 (UniProt Q92575), for which the log2 fold change was inactive: -0.023. As for UAP1L1 (UniProt Q3KQV9), the log2 fold change is inactive: -0.072. To UBR2 isoform 4 (UniProt Q8IWV8) belongs inactive: 0.021.

Consider UBXN10 (UniProt Q96LJ8), for which the log2 fold change is inactive: 0.01. For the target UBE2A (UniProt P49459), the log2 fold change is inactive: 0.035.

For the target U2SURP (UniProt O15042), the log2 fold change is inactive: 0.019.

Values taken from the supplement of paper PMC10849652.
